{"source": "PubChem BioAssay AID1259308 (NCATS, 2017)", "assay": "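Genes whose loss raises luciferase production in HEK293 cells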 (primary screen)", "cell system": "human HEK293 embryonic kidney cells stably expressing firefly luciferase (HEK-CMV-Luc2-Hygro)", "reagent": "single siRNA against human genes, 0.8 pmol siRNA per well", "time to read-out": "72 h", "detection": "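Reporter luminescence and viable-cell signal on separate replicate plates, given as percent of non-targeting control and median/MAD z-scores, plus per-cell luciferase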", "reading the numbers": "total luciferase, z-score: higher = more reporter protein produced", "hit rule": "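Active when the median/MAD z-score for overall luciferase is greater than 3; a gene was taken forward for validation with new siRNAs if at least two of its three siRNAs passed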", "calls": "active = raised luciferase; inactive = no rise", "note": "Shown is an unselected part of about 59,000 reagents. Over the whole deposit, about 1,510 (2.6%) got an active call. 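Calls use total luciferase alone and ignore viability, so some active siRNAs may act by altering cell number.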 Reagents against one gene are numbered here. Not all columns of the deposit are shown."}
{"gene knocked down":"S100B (S100 calcium binding protein B)","reagent no.":1,"total luciferase, z-score":0.833,"Call":"inactive"}
{"gene knocked down":"S100B (S100 calcium binding protein B)","reagent no.":2,"total luciferase, z-score":-0.151,"Call":"inactive"}
{"gene knocked down":"S100B (S100 calcium binding protein B)","reagent no.":3,"total luciferase, z-score":0.584,"Call":"inactive"}
{"gene knocked down":"POU2F2 (POU class 2 homeobox 2)","reagent no.":1,"total luciferase, z-score":-1.66,"Call":"inactive"}
{"gene knocked down":"POU2F2 (POU class 2 homeobox 2)","reagent no.":2,"total luciferase, z-score":1.03,"Call":"inactive"}
{"gene knocked down":"POU2F2 (POU class 2 homeobox 2)","reagent no.":3,"total luciferase, z-score":-0.108,"Call":"inactive"}
{"gene knocked down":"SLC39A10","reagent no.":1,"total luciferase, z-score":-0.823,"Call":"inactive"}
{"gene knocked down":"SLC39A10","reagent no.":2,"total luciferase, z-score":1.79,"Call":"inactive"}
{"gene knocked down":"SLC39A10","reagent no.":3,"total luciferase, z-score":0.127,"Call":"inactive"}
{"gene knocked down":"KRT10 (keratin 10)","reagent no.":1,"total luciferase, z-score":0.121,"Call":"inactive"}
{"gene knocked down":"KRT10 (keratin 10)","reagent no.":2,"total luciferase, z-score":-0.866,"Call":"inactive"}
{"gene knocked down":"KRT10 (keratin 10)","reagent no.":3,"total luciferase, z-score":0.689,"Call":"inactive"}
{"gene knocked down":"RAD9A (RAD9 checkpoint clamp component A)","reagent no.":1,"total luciferase, z-score":1.04,"Call":"inactive"}
{"gene knocked down":"RAD9A (RAD9 checkpoint clamp component A)","reagent no.":2,"total luciferase, z-score":0.864,"Call":"inactive"}
{"gene knocked down":"RAD9A (RAD9 checkpoint clamp component A)","reagent no.":3,"total luciferase, z-score":-0.357,"Call":"inactive"}
{"gene knocked down":"KRTAP13-3 (keratin associated protein 13-3)","reagent no.":1,"total luciferase, z-score":-0.379,"Call":"inactive"}
{"gene knocked down":"KRTAP13-3 (keratin associated protein 13-3)","reagent no.":2,"total luciferase, z-score":-1.72,"Call":"inactive"}
{"gene knocked down":"KRTAP13-3 (keratin associated protein 13-3)","reagent no.":3,"total luciferase, z-score":-0.419,"Call":"inactive"}
{"gene knocked down":"PGC (progastricsin)","reagent no.":1,"total luciferase, z-score":3.95,"Call":"active"}
{"gene knocked down":"PGC (progastricsin)","reagent no.":2,"total luciferase, z-score":-1.2,"Call":"inactive"}
{"gene knocked down":"PGC (progastricsin)","reagent no.":3,"total luciferase, z-score":0.677,"Call":"inactive"}

A few values from the entries so far:
SLC39A10 #1, total luciferase, z-score: -0.823
Value for SLC39A10 #3 under “total luciferase, z-score”: 0.127
Entry of KRTAP13-3 (keratin associated protein 13-3) #2 in “total luciferase, z-score”: -1.72
KRTAP13-3 (keratin associated protein 13-3) #3, Call: inactive
Entry of S100B (S100 calcium binding protein B) #3 under “Call”: inactive
Result of PGC (progastricsin) #2 under “total luciferase, z-score”: -1.2

More records follow:
{"gene knocked down":"RAP1B (RAP1B, member of RAS oncogene family)","reagent no.":1,"total luciferase, z-score":-2.05,"Call":"inactive"}
{"gene knocked down":"RAP1B (RAP1B, member of RAS oncogene family)","reagent no.":2,"total luciferase, z-score":0.0761,"Call":"inactive"}
{"gene knocked down":"RAP1B (RAP1B, member of RAS oncogene family)","reagent no.":3,"total luciferase, z-score":0.316,"Call":"inactive"}
{"gene knocked down":"LOC441239","reagent no.":1,"total luciferase, z-score":-0.621,"Call":"inactive"}
{"gene knocked down":"LOC441239","reagent no.":2,"total luciferase, z-score":0.268,"Call":"inactive"}
{"gene knocked down":"LOC441239","reagent no.":3,"total luciferase, z-score":-0.338,"Call":"inactive"}
{"gene knocked down":"PLS3 (plastin 3)","reagent no.":1,"total luciferase, z-score":-0.0772,"Call":"inactive"}
{"gene knocked down":"PLS3 (plastin 3)","reagent no.":2,"total luciferase, z-score":-0.716,"Call":"inactive"}
{"gene knocked down":"PLS3 (plastin 3)","reagent no.":3,"total luciferase, z-score":0.212,"Call":"inactive"}
{"gene knocked down":"HSDL2 (hydroxysteroid dehydrogenase like 2)","reagent no.":1,"total luciferase, z-score":-0.695,"Call":"inactive"}
{"gene knocked down":"HSDL2 (hydroxysteroid dehydrogenase like 2)","reagent no.":2,"total luciferase, z-score":0.967,"Call":"inactive"}
{"gene knocked down":"HSDL2 (hydroxysteroid dehydrogenase like 2)","reagent no.":3,"total luciferase, z-score":-0.991,"Call":"inactive"}
{"gene knocked down":"NLRP4 (NLR family pyrin domain containing 4)","reagent no.":1,"total luciferase, z-score":0.725,"Call":"inactive"}
{"gene knocked down":"NLRP4 (NLR family pyrin domain containing 4)","reagent no.":2,"total luciferase, z-score":0.125,"Call":"inactive"}
{"gene knocked down":"NLRP4 (NLR family pyrin domain containing 4)","reagent no.":3,"total luciferase, z-score":0.496,"Call":"inactive"}
{"gene knocked down":"PTPN4 (protein tyrosine phosphatase non-receptor type 4)","reagent no.":1,"total luciferase, z-score":-1.57,"Call":"inactive"}
{"gene knocked down":"PTPN4 (protein tyrosine phosphatase non-receptor type 4)","reagent no.":2,"total luciferase, z-score":0.18,"Call":"inactive"}
{"gene knocked down":"PTPN4 (protein tyrosine phosphatase non-receptor type 4)","reagent no.":3,"total luciferase, z-score":-0.932,"Call":"inactive"}
{"gene knocked down":"PTDSS2 (phosphatidylserine synthase 2)","reagent no.":1,"total luciferase, z-score":-0.431,"Call":"inactive"}
{"gene knocked down":"PTDSS2 (phosphatidylserine synthase 2)","reagent no.":2,"total luciferase, z-score":1.5,"Call":"inactive"}
{"gene knocked down":"PTDSS2 (phosphatidylserine synthase 2)","reagent no.":3,"total luciferase, z-score":-1.73,"Call":"inactive"}
